Publication doi:10.1101/2025.09.09.671438
No constants are given. Whether binding was seen depends on the method and setting. Some entries that bind do so weakly or less than the wild type.

Amino acid sequences for entries named in this document (tags omitted).
UniProt Q3UHK6: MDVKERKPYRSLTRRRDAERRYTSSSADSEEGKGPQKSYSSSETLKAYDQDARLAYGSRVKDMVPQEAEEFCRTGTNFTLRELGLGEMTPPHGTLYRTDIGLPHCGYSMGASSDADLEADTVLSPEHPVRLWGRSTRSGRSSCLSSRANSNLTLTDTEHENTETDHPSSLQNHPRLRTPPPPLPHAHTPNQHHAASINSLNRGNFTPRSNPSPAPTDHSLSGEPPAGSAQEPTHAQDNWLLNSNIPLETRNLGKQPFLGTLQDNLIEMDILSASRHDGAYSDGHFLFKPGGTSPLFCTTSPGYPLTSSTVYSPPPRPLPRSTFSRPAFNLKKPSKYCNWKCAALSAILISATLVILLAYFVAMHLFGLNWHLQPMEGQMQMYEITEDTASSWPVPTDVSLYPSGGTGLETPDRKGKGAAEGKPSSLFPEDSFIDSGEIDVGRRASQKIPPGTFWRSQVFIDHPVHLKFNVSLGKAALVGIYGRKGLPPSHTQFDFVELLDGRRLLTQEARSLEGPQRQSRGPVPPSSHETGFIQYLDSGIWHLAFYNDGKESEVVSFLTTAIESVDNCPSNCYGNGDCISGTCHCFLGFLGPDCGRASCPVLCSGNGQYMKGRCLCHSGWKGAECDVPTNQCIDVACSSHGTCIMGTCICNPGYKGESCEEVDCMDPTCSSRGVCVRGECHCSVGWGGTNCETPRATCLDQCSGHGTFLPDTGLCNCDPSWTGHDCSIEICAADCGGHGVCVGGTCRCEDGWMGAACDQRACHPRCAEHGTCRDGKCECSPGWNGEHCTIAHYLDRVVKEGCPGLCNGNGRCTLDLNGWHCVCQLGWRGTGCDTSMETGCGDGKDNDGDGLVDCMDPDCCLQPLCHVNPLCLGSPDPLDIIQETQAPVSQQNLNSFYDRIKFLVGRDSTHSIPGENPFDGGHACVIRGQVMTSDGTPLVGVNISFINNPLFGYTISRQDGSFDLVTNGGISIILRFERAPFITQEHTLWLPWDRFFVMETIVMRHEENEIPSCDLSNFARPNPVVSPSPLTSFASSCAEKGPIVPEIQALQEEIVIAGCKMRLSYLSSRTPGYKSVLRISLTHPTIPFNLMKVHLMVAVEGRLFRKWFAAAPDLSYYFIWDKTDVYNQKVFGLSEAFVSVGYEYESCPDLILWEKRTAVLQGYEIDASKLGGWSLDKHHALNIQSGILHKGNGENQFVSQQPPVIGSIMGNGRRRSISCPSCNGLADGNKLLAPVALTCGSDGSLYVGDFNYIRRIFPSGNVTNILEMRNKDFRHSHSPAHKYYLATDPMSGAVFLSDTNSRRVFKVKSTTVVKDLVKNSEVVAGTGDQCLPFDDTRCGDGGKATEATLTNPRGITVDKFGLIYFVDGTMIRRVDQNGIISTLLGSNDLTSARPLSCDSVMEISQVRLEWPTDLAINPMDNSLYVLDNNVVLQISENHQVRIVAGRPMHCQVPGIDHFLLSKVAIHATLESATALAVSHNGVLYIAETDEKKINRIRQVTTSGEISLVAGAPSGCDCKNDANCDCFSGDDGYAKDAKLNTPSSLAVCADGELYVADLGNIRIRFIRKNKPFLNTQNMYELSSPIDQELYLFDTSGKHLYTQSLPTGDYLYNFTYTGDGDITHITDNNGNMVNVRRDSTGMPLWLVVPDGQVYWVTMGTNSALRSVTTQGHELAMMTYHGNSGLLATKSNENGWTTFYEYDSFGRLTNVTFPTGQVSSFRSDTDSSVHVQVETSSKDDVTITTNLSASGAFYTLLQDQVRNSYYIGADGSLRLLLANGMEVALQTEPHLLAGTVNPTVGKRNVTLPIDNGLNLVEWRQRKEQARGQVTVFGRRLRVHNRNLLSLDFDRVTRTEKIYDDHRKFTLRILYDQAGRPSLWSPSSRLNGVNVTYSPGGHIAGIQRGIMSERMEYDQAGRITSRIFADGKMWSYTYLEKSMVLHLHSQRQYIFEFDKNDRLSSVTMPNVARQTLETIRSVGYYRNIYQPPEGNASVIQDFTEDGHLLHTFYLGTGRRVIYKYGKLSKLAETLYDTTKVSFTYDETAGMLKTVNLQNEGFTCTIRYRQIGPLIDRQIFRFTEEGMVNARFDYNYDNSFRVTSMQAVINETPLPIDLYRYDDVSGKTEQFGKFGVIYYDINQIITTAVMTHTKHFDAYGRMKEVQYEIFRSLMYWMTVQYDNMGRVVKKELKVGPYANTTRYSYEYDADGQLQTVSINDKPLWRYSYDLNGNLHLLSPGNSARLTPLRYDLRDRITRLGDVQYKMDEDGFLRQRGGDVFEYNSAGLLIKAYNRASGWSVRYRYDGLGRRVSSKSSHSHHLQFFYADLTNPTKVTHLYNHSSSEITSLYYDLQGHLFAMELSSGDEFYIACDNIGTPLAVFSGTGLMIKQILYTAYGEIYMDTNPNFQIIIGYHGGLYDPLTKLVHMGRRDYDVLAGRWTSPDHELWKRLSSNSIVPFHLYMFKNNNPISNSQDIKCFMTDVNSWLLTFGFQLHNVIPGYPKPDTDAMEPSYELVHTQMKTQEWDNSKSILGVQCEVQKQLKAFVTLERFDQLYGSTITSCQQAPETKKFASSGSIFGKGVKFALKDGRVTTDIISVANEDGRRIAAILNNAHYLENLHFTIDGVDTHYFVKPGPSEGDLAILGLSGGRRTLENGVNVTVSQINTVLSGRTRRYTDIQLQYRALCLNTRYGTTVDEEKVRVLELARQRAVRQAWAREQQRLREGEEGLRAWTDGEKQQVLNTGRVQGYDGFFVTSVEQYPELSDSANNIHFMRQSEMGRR

Target: mouse Ten4 full length, wild type, isoform A1B1, on cells (mouse) (UniProt Q3UHK6)
Assay: cell-cell aggregation assay

mouse Ten4 full length, wild type, isoform A1B1, on cells (from UniProt Q3UHK6 1-2771) (receptor)
binding: binds
